# Experimental data as given in PubChem BioAssay AID248 (DTP/NCI, 2004).
# The list shows only some results of the screen, not a fair sample: it gathers tests that were run many times, whatever their T/C, doses with no T/C, and many T/C values between a quarter and a half above the control. Further doses and runs are listed elsewhere. T/C is the treated group as % of the vehicle group. Some entries give survivors of the animals treated and no T/C: the source files T/C as zero there, which appears to mark a toxic dose or a test without result, not a measured value. Some doses without a T/C left all or most animals alive at the check, yet need not have been tolerated: survival well below the control is almost never listed, so the zero probably covers shortened survival too. Survivors were counted at the toxicity check, usually on the fifth day, unless a day is given; later deaths do not show. Schedules are NCI's codes, read here as Q, the interval in days (D) or hours (H), X, the number of doses. Some schedule codes hold Z or #, which are not explained here. Some entries hold several experiments; the results are listed from low to high. For survival time, this PubChem deposit counts one and a half times the control or more as active, and values a quarter to a half above the control carry no call in these data; other NCI protocols may use other cut-offs. Some T/C values are followed by the survivors on the day toxicity was checked, most often the fifth; where none is given, no animal had died by that day.
# Tested on: L1210 leukemia ip in BDF1 mice, survival T/C
# Assay: NCI In Vivo Anticancer Drug Screen. Data for tumor model L1210 Leukemia (intraperitoneal) in B6D2F1 (BDF1) mice
# Details: T/C endpoint: mean survival time, higher T/C = longer survival
# [1] = dose: 400.0 mg/kg/injection, schedule: Q01DX009 (ip), vehicle: other
# [2] = dose: 25.0 mg/kg/injection, schedule: Q01DX009 (ip), vehicle: saline with Tween-80
# [3] = dose: 100.0 mg/kg/injection, schedule: Q04DX003 (ip), vehicle: saline with Tween-80
# [4] = dose: 200.0 mg/kg/injection, schedule: Q04DX003 (ip), vehicle: saline with Tween-80
# [5] = dose: 400.0 mg/kg/injection, schedule: Q04DX003 (ip), vehicle: saline with Tween-80
# [6] = dose: 200.0 mg/kg/injection, schedule: Q01DX009 (ip), vehicle: saline with Tween-80
# [7] = dose: 100.0 mg/kg/injection, schedule: Q01DX001 (ip), vehicle: saline
# [8] = dose: 200.0 mg/kg/injection, schedule: Q01DX001 (ip), vehicle: saline
# [9] = dose: 400.0 mg/kg/injection, schedule: Q01DX001 (ip), vehicle: saline
# [10] = dose: 400.0 mg/kg/injection, schedule: Q01DX009 (ip), vehicle: saline
# [11] = dose: 400.0 mg/kg/injection, schedule: Q04DX003 (ip), vehicle: Klucel (hydroxypropylcellulose) (HPC)
# [12] = dose: 100.0 mg/kg/injection, schedule: Q01DX009 (ip), vehicle: saline with Tween-80
# [13] = dose: 50.0 mg/kg/injection, schedule: Q01DX009 (ip), vehicle: saline with Tween-80
# [14] = dose: 75.0 mg/kg/injection, schedule: Q01DX009 (ip), vehicle: saline with Tween-80
structure (smiles),measurement,setting,value
CSc1ccc(NC(=O)Nc2cccc(F)c2)cc1,survivor count,[1],0 of 6
CCCCCCCCCCCCCCCOc1cc(C=O)ccc1OC,survivor count,"dose: 400.0 mg/kg/injection, schedule: Q01DX001 (ip), vehicle: Klucel (hydroxypropylcellulose) (HPC)",6 of 6
CCCCCCCCCCCCCCCCCCN1CCSCC1,survivor count,"dose: 400.0 mg/kg/injection, schedule: Q04DX002 (ip), vehicle: saline with Tween-80",3 of 3
O=C1C(=C(C(F)(F)F)C(F)(F)F)C2CCC1C2 (stereo unspecified),survivor count,[2],4 of 6
same,survivor count,[3],0 of 6
same,survivor count,[4],0 of 6
same,survivor count,[5],0 of 6
Clc1ccc(C#CP(C#Cc2ccc(Cl)cc2)C#Cc2ccc(Cl)cc2)cc1,survivor count,[6],3 of 3
O=S1(=O)C=CC1,survivor count,[7],2 of 4
same,survivor count,[8],0 of 4
same,survivor count,[9],0 of 4
O=C(CCl)c1ccc[nH]1,survivor count,"dose: 150.0 mg/kg/injection, schedule: Q01DX001 (ip), vehicle: carboxymethylcellulose (CMC)",3 of 6
same,survivor count,"dose: 200.0 mg/kg/injection, schedule: Q01DX015 (ip), vehicle: carboxymethylcellulose (CMC)",0 of 6
same,survivor count,"dose: 300.0 mg/kg/injection, schedule: Q01DX001 (ip), vehicle: carboxymethylcellulose (CMC)",0 of 6
same,survivor count,"dose: 400.0 mg/kg/injection, schedule: Q01DX015 (ip), vehicle: carboxymethylcellulose (CMC)",0 of 6
Cn1ncc2c(NCc3ccccc3Cl)ncnc21,T/C,"dose: 100.0 mg/kg/injection, schedule: Q01DX009 (ip), vehicle: other",134 % of control
same,survivor count,[1],3 of 6
CCN(CC)S(=O)(=O)c1cccc([N+](=O)[O-])c1,survivor count,[6],6 of 6
same,survivor count,"dose: 400.0 mg/kg/injection, schedule: Q01DX009 (ip), vehicle: saline with Tween-80",0 of 6
Cc1cc(C)c(C[N+](C)(C)C)c(C)c1C,survivor count,[7],0 of 4
same,survivor count,[8],0 of 4
same,survivor count,[9],0 of 4
Clc1ccc(CSC2=NCCN2)cc1,survivor count,"dose: 100.0 mg/kg/injection, schedule: Q04DX003 (ip), vehicle: saline",2 of 6
same,survivor count,"dose: 200.0 mg/kg/injection, schedule: Q04DX003 (ip), vehicle: saline",0 of 6
same,survivor count,"dose: 400.0 mg/kg/injection, schedule: Q04DX003 (ip), vehicle: saline",0 of 6
CCOC(=O)NC(=S)NN,survivor count,[10],3 of 6
O=C(N/N=C/Cc1ccccc1)C(=O)N/N=C/Cc1ccccc1,survivor count,[6],1 of 3
Nc1nccnc1C(=O)O,survivor count,"dose: 400.0 mg/kg/injection, schedule: Q01DX009 (ip), vehicle: water",3 of 6
c1ccc2[nH]c(CN3CCCCC3)cc2c1,survivor count,[3],3 of 6
same,survivor count,[4],0 of 6
same,survivor count,[5],0 of 6
N#CSc1nc2ccccc2s1,survivor count,"dose: 50.0 mg/kg/injection, schedule: Q01DX001 (ip), vehicle: saline",1 of 6
same,survivor count,[7],0 of 6
same,survivor count,[8],0 of 6
same,survivor count,[9],0 of 6
CC[CH2][Pb]([CH2]CC)([CH2]CC)[O]C(=O)C1CCCCC1,survivor count,"dose: 12.5 mg/kg/injection, schedule: Q04DX003 (ip), vehicle: saline with Tween-80",3 of 6
same,survivor count,"dose: 25.0 mg/kg/injection, schedule: Q04DX003 (ip), vehicle: saline with Tween-80",0 of 6
same,survivor count,"dose: 50.0 mg/kg/injection, schedule: Q04DX003 (ip), vehicle: saline with Tween-80",1 of 6
same,survivor count,[3],0 of 6
same,survivor count,[4],0 of 6
same,survivor count,[5],0 of 6
Clc1nc2nc[nH]c2nc1Cl,survivor count,"dose: 200.0 mg/kg/injection, schedule: Q04DX003 (ip), vehicle: Klucel (hydroxypropylcellulose) (HPC)",0 of 6
same,survivor count,[11],0 of 6
S=c1c2ccccc2nc2n1CCS2,survivor count,[12],6 of 6
CCC(C)c1cc(CN(C)C)cc(C(C)CC)c1O (stereo unspecified),survivor count,"dose: 100.0 mg/kg/injection, schedule: Q01DX009 (ip), vehicle: Klucel (hydroxypropylcellulose) (HPC)",3 of 6
same,survivor count,"dose: 200.0 mg/kg/injection, schedule: Q01DX009 (ip), vehicle: Klucel (hydroxypropylcellulose) (HPC)",0 of 6
same,survivor count,"dose: 400.0 mg/kg/injection, schedule: Q01DX009 (ip), vehicle: Klucel (hydroxypropylcellulose) (HPC)",0 of 6
COC(=O)CCCN1CC2C=C(C#N)C1C(C(=O)OC)C2 (stereo unspecified),survivor count,"dose: 75.0 mg/kg/injection, schedule: Q01DX001 (ip), vehicle: saline",6 of 6
COc1cccc2c1C(=O)c1c(O)c3c(c(O)c1C2=O)C[C@@](O)(/C(C)=N/N1CCCCC1)C[C@@H]3OC1CC(N)C(O)C(C)O1 (stereo partly specified),T/C,"dose: 1.0 mg/kg/injection, schedule: Q01DX009 (ip), vehicle: water",126 and 127 % of control
same,T/C,"dose: 2.0 mg/kg/injection, schedule: Q01DX009 (ip), vehicle: water",142 % of control
same,T/C,"dose: 2.0 mg/kg/injection, schedule: Q04DX003 (ip), vehicle: water",128 and 134 % of control
same,T/C,"dose: 4.0 mg/kg/injection, schedule: Q04DX003 (ip), vehicle: water",131 % of control
same,survivor count,"dose: 8.0 mg/kg/injection, schedule: Q01DX009 (ip), vehicle: water",4 of 10
same,T/C,"dose: 8.0 mg/kg/injection, schedule: Q04DX003 (ip), vehicle: water",127 % of control
same,survivor count,"dose: 12.5 mg/kg/injection, schedule: Q01DX009 (ip), vehicle: saline with Tween-80",9 of 10
same,survivor count,[2],0 of 10
same,survivor count,[13],0 of 10
CSc1nccc(=O)n1C,survivor count,"dose: 100.0 mg/kg/injection, schedule: Q01DX009 (ip), vehicle: saline",0 of 6
same,survivor count,"dose: 200.0 mg/kg/injection, schedule: Q01DX009 (ip), vehicle: saline",0 of 6
same,survivor count,[10],0 of 6
FC(F)c1nc2nc(Cl)c(Cl)nc2[nH]1,T/C,[2],129 and 133 % of control
same,T/C,[13],145 % of control
same,survivor count,[13],2 of 6
same,T/C,[14],141 % of control
same,survivor count,[14],0 of 6
same,survivor count,[12],"0 of 6, 2 of 6, 3 of 6"
same,survivor count,[4],3 of 6
same,survivor count,[5],0 of 6
CC1CCCCN1 (stereo unspecified),survivor count,"dose: 12.5 mg/kg/injection, schedule: Q01DX Z (ip), vehicle: saline",6 of 6
same,survivor count,"dose: 25.0 mg/kg/injection, schedule: Q01DX Z (ip), vehicle: saline",6 of 6
same,survivor count,"dose: 50.0 mg/kg/injection, schedule: Q01DX Z (ip), vehicle: saline",6 of 6
same,survivor count,"dose: 100.0 mg/kg/injection, schedule: Q01DX Z (ip), vehicle: saline",6 of 6
C/C(CCC(=O)O)=N\NC(=O)COc1ccc(Cl)cc1Cl,survivor count,[11],0 of 6
Cn1cnc([N+](=O)[O-])c1[Se]c1nc(N)nc2c1ncn2C1CC(O)C(CO)O1 (stereo unspecified),T/C,"dose: 16.5 mg/kg/injection, schedule: Q01DX009 (ip), vehicle: saline",143 % of control
same,T/C,"dose: 25.0 mg/kg/injection, schedule: Q01DX005 (ip), vehicle: saline",144 % of control [5 of 6 alive]
same,survivor count,"dose: 50.0 mg/kg/injection, schedule: Q01DX005 (ip), vehicle: saline",3 of 6
same,survivor count,"dose: 100.0 mg/kg/injection, schedule: Q01DX005 (ip), vehicle: saline",3 of 6
CC(C)(O)C(CO)c1ccccc1 (stereo unspecified),survivor count,[8],5 of 6
same,survivor count,[9],0 of 6
CN1C(c2ccco2)NC(=O)C12CCN(Cc1ccccc1)CC2 (stereo unspecified),survivor count,"dose: 400.0 mg/kg/injection, schedule: Q01DX001 (ip), vehicle: carboxymethylcellulose (CMC)",1 of 6
NNC(=O)CNc1ccc(F)c(C(F)(F)F)c1,survivor count,"dose: 400.0 mg/kg/injection, schedule: Q04DX002 (ip), vehicle: Klucel (hydroxypropylcellulose) (HPC)",1 of 3
